Results are given in words; binding and its absence hold for the method and conditions named. In cells and extracts the contact can be indirect. Some entries that bind do so weakly or less than the wild type.
Experiments:
[1] = target: T1, ferritin purified from horse spleen (mixture of FTH1 and FTL subunits) (horse) (UniProt Q8MIP0+P02791); assay: GST pull-down of equine spleen ferritin with bead-bound GST-NCOA4 fragments, FTH1 immunoblot
[2] = target: GST-GABARAPL2 (human); assay: GST pull-down of NCOA4-HA-FLAG from 293T lysate with GST-ATG8 proteins, HA immunoblot
[3] = target: T1, ferritin purified from horse spleen (mixture of FTH1 and FTL subunits) (horse); assay: GST pull-down of ferritin with bead-bound GST-NCOA4 fragments, FTH1 immunoblot
[4] = target: T1, ferritin purified from horse spleen (mixture of FTH1 and FTL subunits) (horse); assay: GST pull-down with in vitro translated C-terminal His-GST-HA tagged NCOA4 constructs, FTH1 immunoblot

Protein sequences, listed by entry. Tags and fused reporters are not part of them. Lines headed by an entry give the natural chain unless they say otherwise; changes in a name come on top.
UniProt Q8MIP0: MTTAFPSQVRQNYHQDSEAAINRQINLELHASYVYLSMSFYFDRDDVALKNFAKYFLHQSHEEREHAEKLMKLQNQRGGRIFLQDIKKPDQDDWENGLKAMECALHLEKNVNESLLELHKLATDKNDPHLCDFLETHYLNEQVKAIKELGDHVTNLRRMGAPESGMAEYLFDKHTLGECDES
UniProt P02791: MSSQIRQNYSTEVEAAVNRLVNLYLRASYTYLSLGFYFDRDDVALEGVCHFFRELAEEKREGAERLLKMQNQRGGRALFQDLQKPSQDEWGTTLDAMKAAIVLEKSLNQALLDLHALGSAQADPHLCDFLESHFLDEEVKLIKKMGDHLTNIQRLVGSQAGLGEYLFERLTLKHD
UniProt Q13772: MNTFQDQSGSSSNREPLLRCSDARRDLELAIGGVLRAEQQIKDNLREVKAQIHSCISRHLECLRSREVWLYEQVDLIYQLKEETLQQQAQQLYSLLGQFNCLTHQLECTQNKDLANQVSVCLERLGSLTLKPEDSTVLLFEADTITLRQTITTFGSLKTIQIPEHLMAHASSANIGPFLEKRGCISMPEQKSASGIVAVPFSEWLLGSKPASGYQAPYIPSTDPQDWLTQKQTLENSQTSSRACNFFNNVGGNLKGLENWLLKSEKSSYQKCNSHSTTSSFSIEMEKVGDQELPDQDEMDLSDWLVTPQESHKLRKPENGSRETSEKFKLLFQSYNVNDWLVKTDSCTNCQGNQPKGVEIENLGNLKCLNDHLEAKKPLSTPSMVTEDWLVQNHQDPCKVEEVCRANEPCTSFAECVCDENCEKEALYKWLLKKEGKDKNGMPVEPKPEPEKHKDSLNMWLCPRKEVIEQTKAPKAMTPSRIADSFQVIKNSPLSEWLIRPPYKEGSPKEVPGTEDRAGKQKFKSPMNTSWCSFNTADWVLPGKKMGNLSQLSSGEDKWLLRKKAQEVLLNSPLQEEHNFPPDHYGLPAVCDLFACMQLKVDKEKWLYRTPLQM

Question: For “GST-NCOA4 aa 383-560 (from UniProt Q13772 383-560)”, which binding [1] is on record?
Answer: The binding was “binds”.

Question: For “NCOA4-HA-FLAG (from UniProt Q13772 1-614)”, which binding [2] is on record?
Answer: The binding was “binds”.

Question: With “GST-NCOA4 aa 383-522 (from UniProt Q13772 383-522)” as the substance, how does the binding [3] read?
Answer: The binding was “binds”.

Question: For “NCOA4 aa 383-522, C-terminal His-GST-HA tagged (in vitro translated) (from UniProt Q13772 383-522)”, which binding [4] is on record?
Answer: The binding was “binds”.

Question: For “GST-NCOA4 aa 475-522 (from UniProt Q13772 475-522)”, which binding [3] is on record?
Answer: The binding was “binds”.

Question: “GST-NCOA4 C-terminus (aa 235-614) (from UniProt Q13772 235-614)” was tested. Which binding [1] did it give?
Answer: The binding was “binds”.

Question: Which binding [1] does the source give for “GST-NCOA4 aa 235-560 (from UniProt Q13772 235-560)” here?
Answer: The binding was “binds”.

Question: For “NCOA4 aa 475-522, C-terminal His-GST-HA tagged (in vitro translated) (from UniProt Q13772 475-522)”, which binding [4] is on record?
Answer: The binding was “binds”.

Source: US20170182119A1
